Laboratory results: the supplement of paper PMC3334620
Over roughly 33,000 sequences, “E-score (-0.5 to 0.5)” has its median near -0.0059; the highest 2% begin near 0.26. Some of the results follow.

biological target: T1, Cin5 (UniProt P40917); test: PBM E-score (8-mer binding enrichment) (E-score (-0.5 to 0.5)); higher = stronger / more preferred TF binding; details: protein concentration: 100 nM; construct: GST-full length
T1 sequence: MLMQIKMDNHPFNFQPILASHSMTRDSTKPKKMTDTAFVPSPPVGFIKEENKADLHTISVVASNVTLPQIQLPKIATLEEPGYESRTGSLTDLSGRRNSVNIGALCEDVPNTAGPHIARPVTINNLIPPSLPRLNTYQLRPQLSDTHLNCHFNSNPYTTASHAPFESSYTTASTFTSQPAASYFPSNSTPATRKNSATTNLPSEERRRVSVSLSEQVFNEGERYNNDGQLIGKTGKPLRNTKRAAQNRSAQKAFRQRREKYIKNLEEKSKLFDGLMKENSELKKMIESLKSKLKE
Method in brief: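 E-scores (a modified Wilcoxon-Mann-Whitney statistic) were assigned by the Universal PBM Analysis Suite to every ungapped eight-base word pooled with its reverse complement. The input came from universal all-10-mer Agilent arrays made double-stranded by primer extension and probed with GST-tagged yeast transcription factors at about 100-200 nM. Fluorescent anti-GST detected bound protein, and masliner normalised the scans.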

Row | Sequence | PBM E-score
1 | GAAGGGGA | -0.0811
2 | TACCCAGA | 0.12
3 | CCGATCAG | -0.0546
4 | CACGCGTG | 0.102
5 | ATCGGGAA | 0.141
6 | CGTAGTTA | 0.0498
7 | AACCGTAC | -0.255
8 | CCCCGTTC | -0.0834
9 | CACCGAAC | -0.174
10 | ACGTTAAT | 0.167
11 | GTAATCAC | 0.321
12 | AGCGCACA | 0.0716
13 | GATAAGCC | 0.0299
14 | CCGCTCCA | -0.202
15 | ACCCACCG | 0.0791
16 | ATTCCACC | 0.15
17 | AAGGGAAT | 0.0586
18 | ACTGACAC | -0.0491
19 | GAGCCGAA | -0.0371
20 | TGGCGTAA | -0.0336
21 | CCTCAAGG | -0.254
22 | AGGCGTGA | -0.232
23 | CAAGGCAG | -0.00243
24 | AAAGAGGC | -0.211
25 | ATGCAGGC | -0.0288

Row | Sequence | PBM E-score
26 | CGATCCAC | -0.103
27 | TTCCACAA | 0.19
28 | TACAGCCA | -0.0547
29 | CGTAATAA | 0.239
30 | ACGAGGAC | -0.0789
31 | CGCACTAA | 0.086
32 | CGTATCGC | -0.0212
33 | ATCGAAGA | 0.13
34 | GCCCCCAC | -0.461
35 | CTCCTCTC | -0.262
36 | AAGTACCG | 0.0523
37 | CACGCCTG | -0.121
38 | CTGAACGA | -0.204
39 | ATGCCGTA | 0.119
40 | CGCATTGC | 0.0664
41 | CGGATCAC | 0.112
42 | GCCTTACA | -0.253
43 | CCCTTTAA | -0.0752
44 | TATACGGA | -0.0482
45 | AGACAGCC | -0.174
46 | TATGCTAA | 0.0753
47 | CCACCGTC | -0.204
48 | AAGTTCTC | -0.0732
49 | AGTAAGCG | 0.354
50 | AAGTTTGT | 0.0352

Already shown: entries from further up.
Row | Sequence | PBM E-score
36 | AAGTACCG | 0.0523
37 | CACGCCTG | -0.121
38 | CTGAACGA | -0.204

Carrying on:

Row | Sequence | PBM E-score
51 | CCATCCGC | 0.135
52 | GTCACATA | 0.0519
53 | AACCGATC | -0.0743
54 | CTCCGGCC | -0.371
55 | CACACACC | 0.00822
56 | CATCTCAC | 0.0306
57 | CTCTCTCA | -0.168
58 | ACATCGTG | 0.0375
59 | AAGGATTG | -0.0117
60 | AGCACCAA | 0.0787
61 | CGCCGTGC | -0.0852
62 | TCGATCGA | 0.211
63 | ACATTTAG | -0.132
64 | AATCCTGG | 0.00803
65 | GATAGGTA | 0.157
66 | GCTCGCGA | 0.119
67 | AAACCCTT | 0.0723
68 | CATCGCCA | 0.0641
69 | GATATCTA | 0.066
70 | ACGATGTC | -0.0703
71 | AGCGTTAT | -0.0862
72 | CCAAGATA | -0.00856
73 | AACTGGCC | 0.0999
74 | CATGCCAG | -0.054
75 | CGCTTAGA | -0.0919

Row | Sequence | PBM E-score
76 | GTTCTCTA | -0.0729
77 | GAAGGTGC | -0.155
78 | GATACAGA | 0.101
79 | CGGTTGCA | -0.146
80 | ACGAATCG | 0.0934
81 | CGGAGCCG | -0.142
82 | AGCGAACG | -0.137
83 | CGTTTCTA | -0.00786
84 | ATTTCGCC | 0.102
85 | GATACCTA | 0.223
86 | ATCATGAG | 0.085
87 | AGCTACAC | 0.11
88 | CTTCTCGC | 0.114
89 | CGGCTGAC | 0.174
90 | TACTAGCA | 0.135
91 | AGTGTTTG | 0.191
92 | TCCAGTAA | 0.0264
93 | CCCACGAA | 0.0179
94 | CTTAGGAC | -0.175
95 | CCCATGCC | -0.109
96 | AACACCTA | -0.0786
97 | CACGCAAC | 0.124
98 | ACGGTCAC | -0.139
99 | CAGCAGCC | 0.0402
100 | CGTACCAC | -0.0467

Reformatted: entries from further up.
Row,Sequence,PBM E-score
55,CACACACC,0.00822
56,CATCTCAC,0.0306
58,ACATCGTG,0.0375
59,AAGGATTG,-0.0117
60,AGCACCAA,0.0787
61,CGCCGTGC,-0.0852
62,TCGATCGA,0.211
63,ACATTTAG,-0.132
64,AATCCTGG,0.00803
65,GATAGGTA,0.157
66,GCTCGCGA,0.119
67,AAACCCTT,0.0723
68,CATCGCCA,0.0641
69,GATATCTA,0.066
70,ACGATGTC,-0.0703
71,AGCGTTAT,-0.0862
72,CCAAGATA,-0.00856
73,AACTGGCC,0.0999
74,CATGCCAG,-0.054
75,CGCTTAGA,-0.0919
76,GTTCTCTA,-0.0729
77,GAAGGTGC,-0.155
78,GATACAGA,0.101
79,CGGTTGCA,-0.146
80,ACGAATCG,0.0934
81,CGGAGCCG,-0.142
83,CGTTTCTA,-0.00786
84,ATTTCGCC,0.102
85,GATACCTA,0.223
86,ATCATGAG,0.085
87,AGCTACAC,0.11
88,CTTCTCGC,0.114
89,CGGCTGAC,0.174
90,TACTAGCA,0.135
91,AGTGTTTG,0.191
92,TCCAGTAA,0.0264
93,CCCACGAA,0.0179
94,CTTAGGAC,-0.175
95,CCCATGCC,-0.109
96,AACACCTA,-0.0786
98,ACGGTCAC,-0.139
99,CAGCAGCC,0.0402
100,CGTACCAC,-0.0467

The list continues.

Row | Sequence | PBM E-score
101 | GCTACCCC | -0.317
102 | CAGAAGGG | -0.275
103 | CCGCCAGA | -0.0995
104 | GACACACA | 0.0261
105 | ATCCGCCC | 0.0183
106 | ACGCCACG | -0.212
107 | CGCGCGAC | 0.0018
108 | ACACGCAC | -0.0188
109 | AAAGGGGA | -0.194
110 | TCCGAACA | 0.0179
111 | ACACTGTG | 0.103
112 | AGTGACCA | 0.0812
113 | GTGAACAC | -0.0689
114 | ATATATTA | 0.272
115 | GGCGCGAA | 0.0326
116 | AGTAAGTG | 0.0758
117 | TCTTAGCA | -0.112
118 | TCGTTAGA | -0.194
119 | CTGTTGGC | -0.174
120 | ACGAGTGA | -0.0249
121 | AGTTCTAT | 0.012
122 | ATGCGGAG | -0.151
123 | ACAACATG | 0.208
124 | ACACCTAT | 0.0417
125 | TGTTAGAA | 0.0325

Row | Sequence | PBM E-score
126 | GTAACTTA | 0.157
127 | GGTTTCAC | 0.102
128 | GCCTCTCA | -0.239
129 | CATCCCGA | 0.0504
130 | GTATAAAA | 0.26
131 | GGCTGGGA | -0.14
132 | CCCAGGCA | -0.158
133 | AGACGTAC | -0.0439
134 | AACCTCTC | -0.0766
135 | AACGGCCG | 0.112
136 | CGATACTC | 0.101
137 | CCGTGAGG | -0.21
138 | GATTCGCA | 0.126
139 | CAATCATG | 0.094
140 | ACCATGCA | 0.155
141 | AGTTCTGG | 0.042
142 | GCGAGACA | -0.138
143 | CAATCATC | 0.0884
144 | AAGCCCAC | -0.0949
145 | CTTCGCCA | -0.137
146 | ACCGCCAT | 0.139
147 | ACGTCCCG | -0.067
148 | CAAAATCG | 0.093
149 | GATAGGCC | -0.0666
150 | GATTACCC | 0.192

Row | Sequence | PBM E-score
151 | GACCCGAA | -0.0898
152 | CCTAAGGC | -0.348
153 | CTGGCAGC | -0.338
154 | ACGCGTCC | -0.152
155 | AGCATTTA | -0.0377
156 | CGGATCCC | -0.122
157 | AGACTTGC | -0.271
158 | ACAATGGC | 0.0611
159 | GTACTGAA | 0.212
160 | CTGGCCGA | -0.211
161 | AGGAGGTG | -0.309
162 | ACAAGCTG | -0.0596
163 | CGAGATCC | 0.00893
164 | CATGGTCA | 0.222
165 | GCGTAGCC | -0.158
166 | CACCTAAA | -0.063
167 | AAGCAGTA | 0.119
168 | ATCGAGAA | 0.226
169 | AGAAAGGG | -0.164
170 | GGCTAATA | 0.137
171 | CAAGCGCG | -0.00219
172 | GTCTTCTA | -0.0724
